This passage reports binding results from article PMC4836212.

Protein sequences, listed by entry. Tags and fused reporters are not part of them. Lines headed by an entry give the natural chain unless they say otherwise; changes in a name come on top. Chains listed by the source or under a name are the forms on record and can include a tag or linker.
UniProt O14983: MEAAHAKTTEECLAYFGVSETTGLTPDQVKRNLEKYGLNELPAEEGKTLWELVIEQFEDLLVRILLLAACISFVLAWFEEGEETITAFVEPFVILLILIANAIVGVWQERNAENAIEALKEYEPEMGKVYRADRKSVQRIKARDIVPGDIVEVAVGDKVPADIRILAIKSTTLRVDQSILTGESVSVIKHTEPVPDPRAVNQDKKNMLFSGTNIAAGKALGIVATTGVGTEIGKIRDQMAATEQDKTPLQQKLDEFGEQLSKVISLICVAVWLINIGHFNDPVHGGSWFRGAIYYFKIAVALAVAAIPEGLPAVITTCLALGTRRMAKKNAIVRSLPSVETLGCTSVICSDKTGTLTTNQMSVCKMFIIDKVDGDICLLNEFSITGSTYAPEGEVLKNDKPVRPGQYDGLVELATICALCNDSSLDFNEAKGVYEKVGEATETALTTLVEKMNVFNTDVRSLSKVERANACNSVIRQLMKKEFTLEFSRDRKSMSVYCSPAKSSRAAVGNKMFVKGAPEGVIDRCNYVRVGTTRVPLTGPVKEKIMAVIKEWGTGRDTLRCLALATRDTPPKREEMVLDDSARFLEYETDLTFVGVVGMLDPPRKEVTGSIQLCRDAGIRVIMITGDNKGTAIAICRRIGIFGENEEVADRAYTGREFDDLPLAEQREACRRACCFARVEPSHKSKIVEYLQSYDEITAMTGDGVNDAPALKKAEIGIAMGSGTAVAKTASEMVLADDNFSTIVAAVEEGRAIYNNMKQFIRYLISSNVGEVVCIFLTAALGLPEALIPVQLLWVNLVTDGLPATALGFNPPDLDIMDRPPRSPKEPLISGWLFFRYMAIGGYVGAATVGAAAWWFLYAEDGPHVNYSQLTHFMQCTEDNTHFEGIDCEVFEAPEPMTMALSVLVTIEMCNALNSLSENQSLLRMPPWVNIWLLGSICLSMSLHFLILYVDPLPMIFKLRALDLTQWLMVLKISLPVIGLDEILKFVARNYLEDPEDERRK
sarco/endoplasmic reticulum Ca2+ ATPase 2 (P16615-2, form named): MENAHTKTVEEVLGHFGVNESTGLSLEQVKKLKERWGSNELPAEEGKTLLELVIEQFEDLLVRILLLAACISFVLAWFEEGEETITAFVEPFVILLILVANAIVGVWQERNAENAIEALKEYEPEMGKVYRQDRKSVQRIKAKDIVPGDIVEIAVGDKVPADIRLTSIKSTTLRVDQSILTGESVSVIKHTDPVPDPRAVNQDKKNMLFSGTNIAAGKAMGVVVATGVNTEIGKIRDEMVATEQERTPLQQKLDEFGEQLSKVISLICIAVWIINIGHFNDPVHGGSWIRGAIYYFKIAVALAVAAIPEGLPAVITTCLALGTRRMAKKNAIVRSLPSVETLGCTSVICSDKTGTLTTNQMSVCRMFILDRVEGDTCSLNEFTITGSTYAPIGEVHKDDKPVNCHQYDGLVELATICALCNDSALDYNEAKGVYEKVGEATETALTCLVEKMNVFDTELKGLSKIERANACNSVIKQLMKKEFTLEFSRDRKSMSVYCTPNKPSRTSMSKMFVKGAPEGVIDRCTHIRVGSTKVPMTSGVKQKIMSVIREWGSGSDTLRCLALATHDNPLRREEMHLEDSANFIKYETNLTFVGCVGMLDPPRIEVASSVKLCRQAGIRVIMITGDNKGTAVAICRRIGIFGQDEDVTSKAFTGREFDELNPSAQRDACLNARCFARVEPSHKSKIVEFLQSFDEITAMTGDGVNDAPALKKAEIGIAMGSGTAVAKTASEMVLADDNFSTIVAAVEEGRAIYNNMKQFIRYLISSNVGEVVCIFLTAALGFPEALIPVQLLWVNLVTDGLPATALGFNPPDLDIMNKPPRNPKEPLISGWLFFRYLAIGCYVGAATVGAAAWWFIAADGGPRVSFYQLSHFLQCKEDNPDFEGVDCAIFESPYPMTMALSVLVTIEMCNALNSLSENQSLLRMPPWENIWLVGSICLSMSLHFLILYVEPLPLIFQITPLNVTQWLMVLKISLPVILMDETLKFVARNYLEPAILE

Test [1] concerns the target T1, calpain 3 (human (endogenous in skeletal muscle)) (UniProt P20807).
T1 sequence: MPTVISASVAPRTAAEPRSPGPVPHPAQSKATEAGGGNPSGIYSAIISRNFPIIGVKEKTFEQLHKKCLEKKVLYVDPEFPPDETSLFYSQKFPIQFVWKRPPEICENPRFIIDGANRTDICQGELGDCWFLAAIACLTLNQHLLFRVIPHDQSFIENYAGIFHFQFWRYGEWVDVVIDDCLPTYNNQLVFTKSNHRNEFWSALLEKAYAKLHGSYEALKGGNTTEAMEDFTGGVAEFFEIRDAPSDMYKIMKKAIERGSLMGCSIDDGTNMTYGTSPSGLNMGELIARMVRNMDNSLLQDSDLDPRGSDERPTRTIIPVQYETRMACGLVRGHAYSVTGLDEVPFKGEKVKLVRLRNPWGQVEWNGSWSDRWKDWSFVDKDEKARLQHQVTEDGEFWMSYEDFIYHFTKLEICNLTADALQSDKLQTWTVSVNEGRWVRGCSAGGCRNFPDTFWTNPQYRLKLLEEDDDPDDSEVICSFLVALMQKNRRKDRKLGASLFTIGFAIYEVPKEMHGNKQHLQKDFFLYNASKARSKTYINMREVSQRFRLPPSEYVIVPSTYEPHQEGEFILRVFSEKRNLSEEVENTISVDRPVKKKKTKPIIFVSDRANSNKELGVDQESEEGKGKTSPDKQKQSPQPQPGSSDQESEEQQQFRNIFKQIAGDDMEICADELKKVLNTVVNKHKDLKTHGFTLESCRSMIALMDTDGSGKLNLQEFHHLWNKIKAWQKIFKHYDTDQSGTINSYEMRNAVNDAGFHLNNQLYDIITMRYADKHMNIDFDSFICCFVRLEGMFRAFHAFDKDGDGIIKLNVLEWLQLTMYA
Kind of test: proximity ligation; in situ PLA (Duolink II Red), 10-um cryosections of a control human (dorsal) muscle; primary antibodies pIS2C, 12A2-Calpain3, SERCA1, SERCA2a, ANK1; spots mean <40 nm distance.

Test [2] has as its target T1, calpain 3 (human (endogenous in skeletal muscle)). Kind of test: co-IP; endogenous proteins; protein extract (500 ug) of the vastus lateralis of a healthy human donor in modified RIPA buffer (10 mM Tris, 100 mM NaCl, 1 mM EDTA, 1 mM EGTA, 1% Triton X-100, 0.5% sodium deoxycholate, 0.1% SDS, 10% glycerol, pH 7.5); antibodies against CAPN3 (pIS2C), SERCA1 or SERCA2 overnight at 4°C, protein G sepharose; Western blot; normal mouse and goat IgGs as negative controls. On the technique in general: In western blotting, separated proteins are transferred to a membrane and probed.

No constants are given. Whether binding was seen depends on the method and setting. In cells and extracts the contact can be indirect. Some entries that bind do so weakly or less than the wild type.

For the substance “sarco/endoplasmic reticulum Ca2+ ATPase 1 (from UniProt O14983 1-1001)”, the binding entry in test [1] and in test [2] was “binds” throughout.

In the case of “sarco/endoplasmic reticulum Ca2+ ATPase 2 (from UniProt P16615-2 1-997)”, the binding entry in test [1] and in test [2] was “binds” throughout.
